Test results: US11834420B2, “Preparation method of pyrimidinylthio-benzoate oxime ester compound and application thereof as herbicide” (CHANGZHOU UNIVERSITY, priority 2019, dated 2023)
Some of these results come from one statement about several compounds together.

tested on: broadleaf weeds; test: Pot experiment, herbicidal activity, summary for broadleaf weeds; format: in vivo; settings: 45 g a.i./hm^2, text summary of Table 1

**Q.** How did the “inhibitory rates on broadleaf weeds” value turn out when `COc1ccc(/C(C)=N/OC(=O)c2c(Cl)cccc2Sc2nc(OC)cc(OC)n2)c(OC)c1` [M, (E)-1-(2,4-dimethoxyphenyl)ethan-1-one O-(2-chloro-6-((4,6-dimethoxypyrimidin-2-yl)thio)benzoyl)oxime] was run?
**A.** higher than 90%

**Q.** `COc1cc(OC)nc(Sc2cccc(Cl)c2C(=O)O/N=C(\C)c2ccccc2F)n1` [J, (E)-1-(2-fluorophenyl)ethan-1-one O-(2-chloro-6-((4,6-dimethoxypyrimidin-2-yl)thio)benzoyl) oxime] was tested. Which “inhibitory rates on broadleaf weeds” value did it give?
**A.** higher than 90%

**Q.** For `COc1cc(OC)nc(Sc2cccc(Cl)c2C(=O)O/N=C(\C)c2cccc(F)c2)n1` [K, (E)-1-(3-fluorophenyl)ethan-1-one O-(2-chloro-6-((4,6-dimethoxypyrimidin-2-yl)thio)benzoyl) oxime], which “inhibitory rates on broadleaf weeds” value is on record?
**A.** higher than 90%

**Q.** For `COc1cc(OC)nc(Sc2cccc(Cl)c2C(=O)O/N=C(\C)c2ccc(F)cc2)n1` [L, (E)-1-(4-fluorophenyl)ethan-1-one O-(2-chloro-6((4,6-dimethoxypyrimidin-2-yl)thio)benzoyl) oxime], which “inhibitory rates on broadleaf weeds” value is on record?
**A.** higher than 90%
